Numbering of substitutions follows the chain as printed. Names and notes keep the numbering of the source. Results are given in words; binding and its absence hold for the method and conditions named. In cells and extracts the contact can be indirect. Some binding calls cover weakened binding; strength is not graded here. Tags and fused reporters may be left off the sequences shown.

Chains of the proteins cited; added tags and fusions are not shown.
UniProt P61586: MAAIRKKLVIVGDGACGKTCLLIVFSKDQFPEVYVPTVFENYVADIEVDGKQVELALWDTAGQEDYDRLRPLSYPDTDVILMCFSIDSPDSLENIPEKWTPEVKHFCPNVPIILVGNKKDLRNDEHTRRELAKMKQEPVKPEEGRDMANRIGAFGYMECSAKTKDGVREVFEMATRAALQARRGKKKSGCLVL

We go through six molecules from paper PMC11090974, “Structural basis for the distinct roles of non-conserved Pro116 and conserved Tyr124 of BCH domain of yeast p50RhoGAP” (Cellular and Molecular Life Sciences: CMLS, 2024).

The target of one test is HA-RhoA (UniProt P61586). Kind of test: co-IP; 293T cells co-transfected, lysed in modified RIPA buffer; HA-tagged protein precipitated with anti-HA magnetic beads, FLAG-tagged partner detected by western blot.
The target of test [1] is T1, FLAG-p50RhoGAP Y188E (human) (UniProt Q07960).
T1 sequence: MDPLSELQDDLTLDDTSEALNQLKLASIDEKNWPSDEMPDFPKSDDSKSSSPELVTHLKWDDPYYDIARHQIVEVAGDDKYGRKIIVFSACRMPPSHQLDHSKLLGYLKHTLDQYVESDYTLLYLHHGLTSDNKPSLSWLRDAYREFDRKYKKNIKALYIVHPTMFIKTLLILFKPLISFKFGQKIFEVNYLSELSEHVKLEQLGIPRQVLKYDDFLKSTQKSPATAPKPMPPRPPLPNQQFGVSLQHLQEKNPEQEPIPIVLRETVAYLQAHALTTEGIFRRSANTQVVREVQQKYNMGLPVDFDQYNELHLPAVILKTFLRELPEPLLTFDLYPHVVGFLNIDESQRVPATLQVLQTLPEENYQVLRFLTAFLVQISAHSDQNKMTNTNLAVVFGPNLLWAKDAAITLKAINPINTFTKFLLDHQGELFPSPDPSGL
The experiment in a line: co-IP; 293T cells co-transfected, lysed in modified RIPA buffer; FLAG-tagged protein precipitated with anti-FLAG M2 beads, HA-tagged partner detected by western blot. Background: In western blotting, separated proteins are transferred to a membrane and probed.

In test [2] the target is T2, FLAG-p50RhoGAP Y188D (human) (UniProt Q07960).
T2 sequence: T1 sequence with E188D
The description is as above.

For test [3], the target named is T3, human p50RhoGAP, wild type (FLAG-p50RhoGAP or HA-p50RhoGAP) (human), Q07960.
T3 chain: T1 sequence with E188Y
The test is described as above. Conditions: remark: other sources report otherwise.

B1: FLAG-p50RhoGAP F187P (protein, UniProt Q07960 1-439)
chain: T1 sequence with F187P, E188Y
On to B1, for which the binding result with HA-RhoA is recorded as “binds”.

B2: FLAG-p50RhoGAP Y188F (protein, UniProt Q07960 1-439)
chain: T1 sequence with E188F
For the molecule B2, the binding entry in the test with HA-RhoA is “binds weakly”.

B3: FLAG-p50RhoGAP Y188E (protein, UniProt Q07960 1-439)
chain: T1 sequence
For B3, the binding entry with HA-RhoA is reported as “binds”.

B4: human p50RhoGAP, wild type (FLAG-p50RhoGAP or HA-p50RhoGAP) (protein, UniProt Q07960 1-439)
chain: T1 sequence with E188Y
On to B4, for which the binding result in test [1] is given as “binds”; in test [2] it was “binds”; in the test with HA-RhoA it was “binds weakly”.

B5: FLAG-p50RhoGAP Y188D (protein, UniProt Q07960 1-439)
chain: T1 sequence with E188D
For the molecule B5, the binding entry with HA-RhoA was “binds”.

B6: human p50RhoGAP, wild type (FLAG-p50RhoGAP or HA-p50RhoGAP), Q07960 1-439 (protein)
chain: T1 sequence with E188Y
As to B6, the binding result in test [3] is “binds”.
